Measured data: PubChem BioAssay AID1259308 (NCATS, 2017)

Assay: 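Knock-downs that increase output of a recombinant reporter protein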 (primary screen)
Cells: human HEK293 embryonic kidney cells stably expressing firefly luciferase (HEK-CMV-Luc2-Hygro)
Knock-down reagent: single siRNA against human genes, 0.8 pmol siRNA per well
Time to read-out: 72 h
Measurement: 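Reporter luminescence and viable-cell signal on separate replicate plates, given as percent of non-targeting control and median/MAD z-scores, plus per-cell luciferase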
Reading the numbers: total luciferase, z-score and total luciferase, % of control: higher = more reporter protein produced; luciferase per cell, z-score: higher = more reporter output per viable cell; viable cells, % of control: higher = more viable cells
Hit rule: 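Active when the median/MAD z-score for overall luciferase is greater than 3; a gene was taken forward for validation with new siRNAs if at least two of its three siRNAs passed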
Calls: active = raised luciferase; inactive = no rise
This is a random part of about 59,000 reagents. About 1,510 of all reagents (2.6%) count as active. 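Calls use total luciferase alone and ignore viability, so some active siRNAs may act by altering cell number.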 Reagents against one gene are numbered here.

gene knocked down | siRNA no. | total luciferase, z-score | total luciferase, % of control | luciferase per cell, z-score | viable cells, % of control | call
RAB3B | 1 | 0.0425 | 82.7 | -0.489 | 105 | inactive
RAB3B | 2 | 0.914 | 100 | 1.09 | 83.9 | inactive
RAB3B | 3 | 1.17 | 105 | 0.669 | 98.5 | inactive
REV1 | 1 | -0.319 | 75.5 | -0.585 | 98.5 | inactive
REV1 | 2 | -0.352 | 74.9 | -0.424 | 93.6 | inactive
REV1 | 3 | -0.199 | 77.9 | -0.301 | 94.3 | inactive
QPCT | 1 | -0.329 | 75.3 | 0.116 | 81.7 | inactive
QPCT | 2 | -1.52 | 51.7 | -0.967 | 74.6 | inactive
QPCT | 3 | -0.53 | 71.3 | 0.701 | 66.3 | inactive
SRP54 | 1 | 0.133 | 84.5 | 0.124 | 91.4 | inactive
SRP54 | 2 | -1.25 | 57.1 | -1.31 | 90 | inactive
SRP54 | 3 | -0.728 | 67.4 | -1.25 | 105 | inactive
SPI1 | 1 | -1.07 | 60.6 | -0.559 | 78.4 | inactive
SPI1 | 2 | 0.867 | 99.1 | 0.952 | 86.2 | inactive
SPI1 | 3 | -1.41 | 53.9 | -1.13 | 81.2 | inactive
MED25 | 1 | -1.23 | 57.4 | -0.687 | 76.8 | inactive
MED25 | 2 | -1.04 | 61.2 | -0.143 | 71 | inactive
MED25 | 3 | 1.74 | 116 | 1.33 | 91.6 | inactive
LOC100288254 | 1 | -0.29 | 76.1 | -0.301 | 92.1 | inactive
LOC100288254 | 2 | -0.299 | 75.9 | -0.233 | 90.2 | inactive
LOC100288254 | 3 | 0.31 | 88.1 | -0.133 | 102 | inactive
POLQ | 1 | 0.0926 | 83.7 | 0.272 | 87.1 | inactive
POLQ | 2 | 0.301 | 87.9 | 0.184 | 93.5 | inactive
POLQ | 3 | -0.411 | 73.7 | -0.622 | 97 | inactive
ZBED2 | 1 | 1.59 | 113 | 1.36 | 88.6 | inactive
ZBED2 | 2 | -0.415 | 73.6 | 0.459 | 72.9 | inactive
ZBED2 | 3 | -0.0771 | 80.4 | -0.646 | 106 | inactive
CARD9 | 1 | -1.01 | 61.8 | -0.584 | 80.6 | inactive
CARD9 | 2 | 0.453 | 90.9 | 0.105 | 98.8 | inactive
CARD9 | 3 | -0.336 | 75.2 | -0.638 | 99.4 | inactive
SPAG1 | 1 | 2.63 | 134 | 1.33 | 106 | inactive
SPAG1 | 2 | -0.177 | 78.4 | -0.381 | 96.8 | inactive
SPAG1 | 3 | -0.914 | 63.7 | -0.43 | 79.7 | inactive
RND3 | 1 | 0.648 | 94.8 | 1.64 | 68.7 | inactive
RND3 | 2 | -0.479 | 72.4 | -0.654 | 96.1 | inactive
RND3 | 3 | -0.522 | 71.5 | -0.538 | 92.1 | inactive
CIB1 | 1 | -0.437 | 73.2 | -0.312 | 88.8 | inactive
CIB1 | 2 | 1.33 | 108 | 1.46 | 82.5 | inactive
CIB1 | 3 | 0.186 | 85.6 | 0.177 | 91.3 | inactive
EEF1B2P5 | 1 | -1.1 | 60 | -1.03 | 88 | inactive
EEF1B2P5 | 2 | -1.02 | 61.6 | -0.162 | 71.9 | inactive
EEF1B2P5 | 3 | 5.48 | 191 | 4.78 | 60.5 | active
ARHGAP15 | 1 | 1.26 | 107 | 1.04 | 90.9 | inactive
ARHGAP15 | 2 | 0.0144 | 82.2 | -0.401 | 102 | inactive
ARHGAP15 | 3 | 0.26 | 87.1 | -0.103 | 100 | inactive
RTP3 | 1 | 1.53 | 112 | 2.16 | 71.2 | inactive
RTP3 | 2 | 0.0545 | 83 | 3.06 | 41.4 | inactive
RTP3 | 3 | -0.459 | 72.8 | -0.607 | 95.4 | inactive
H1-4 | 1 | 4.26 | 167 | 2.38 | 99.4 | active
H1-4 | 2 | 1.66 | 115 | 0.92 | 101 | inactive
H1-4 | 3 | 0.219 | 86.2 | 0.823 | 77.6 | inactive
NCBP3 | 1 | 0.562 | 93.1 | 1.26 | 74.6 | inactive
NCBP3 | 2 | 0.418 | 90.2 | 0.3 | 93.2 | inactive
NCBP3 | 3 | -0.48 | 72.3 | -0.134 | 83.7 | inactive
TMEM219 | 1 | 0.463 | 91.1 | -0.134 | 105 | inactive
TMEM219 | 2 | 0.524 | 92.3 | 0.518 | 90 | inactive
TMEM219 | 3 | -0.422 | 73.5 | -0.129 | 84.9 | inactive

Quoted from the listing for reference:
gene knocked down | siRNA no. | total luciferase, z-score | total luciferase, % of control | luciferase per cell, z-score | viable cells, % of control | call
RAB3B | 3 | 1.17 | 105 | 0.669 | 98.5 | inactive
REV1 | 1 | -0.319 | 75.5 | -0.585 | 98.5 | inactive
REV1 | 2 | -0.352 | 74.9 | -0.424 | 93.6 | inactive
